Measurements: publication doi:10.1101/727479
No constants are given. Whether binding was seen depends on the method and setting. In cells and extracts the contact can be indirect. Some results given as binding are weak or reduced against the parent protein; the word gives no strength.

Protein sequences, listed by entry. Tags and fused reporters are not part of them.
UniProt P23771: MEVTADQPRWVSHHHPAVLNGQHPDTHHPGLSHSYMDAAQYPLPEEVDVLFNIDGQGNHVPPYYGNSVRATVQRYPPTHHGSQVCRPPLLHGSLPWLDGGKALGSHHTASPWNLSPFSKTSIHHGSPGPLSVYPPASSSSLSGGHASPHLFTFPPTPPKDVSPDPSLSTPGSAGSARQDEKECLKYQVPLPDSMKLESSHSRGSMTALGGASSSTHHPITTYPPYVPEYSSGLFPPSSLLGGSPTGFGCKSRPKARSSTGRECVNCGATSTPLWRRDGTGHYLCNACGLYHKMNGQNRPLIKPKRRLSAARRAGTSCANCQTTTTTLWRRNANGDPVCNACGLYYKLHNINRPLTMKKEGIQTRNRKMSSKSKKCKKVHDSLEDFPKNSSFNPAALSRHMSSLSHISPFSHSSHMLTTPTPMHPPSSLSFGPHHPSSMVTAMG

Target: GATA binding protein 3 (GATA3) (human (endogenous in primary CD4+ T cells)) (UniProt P23771)
Experiment: co-IP

B1: nuclear factor erythroid 2-related factor 2 (NRF2) (protein, UniProt Q16236 1-605)
chain: MMDLELPPPGLPSQQDMDLIDILWRQDIDLGVSREVFDFSQRRKEYELEKQKKLEKERQEQLQKEQEKAFFAQLQLDEETGEFLPIQPAQHIQSETSGSANYSQVAHIPKSDALYFDDCMQLLAQTFPFVDDNEVSSATFQSLVPDIPGHIESPVFIATNQAQSPETSVAQVAPVDLDGMQQDIEQVWEELLSIPELQCLNIENDKLVETTMVPSPEAKLTEVDNYHFYSSIPSMEKEVGNCSPHFLNAFEDSFSSILSTEDPNQLTVNSLNSDATVNTDFGDEFYSAFIAEPSISNSMPSPATLSHSLSELLNGPIDVSDLSLCKAFNQNHPESTAEFNDSDSGISLNTSPSVASPEHSVESSSYGDTLLGLSDSEVEELDSAPGSVKQNGPKTPVHSSGDMVQPLSPSQGQSTHVHDAQCENTPEKELPVSPGHRKTPFTKDKHSSRLEAHLTRDELRAKALHIPFPVEKIINLPVVDFNEMMSKEQFNEAQLALIRDIRRRGKNKVAAQNCRKRKLENIVELEQDLDHLKDEKEKLLKEKGENDKSLHLLKKQLSTLYLEVFSMLRDEDGKPYSPSEYSLQQTRDGNVFLVPKSKKPDVKKN
binding: binds

B2: superoxide dismutase 3 (SOD3) (protein, UniProt P08294 19-240)
chain: WTGEDSAEPNSDSAEWIRDMYAKVTEIWQEVMQRRDDDGALHAACQVQPSATLDAAQPRVTGVVLFRQLAPRAKLDAFFALEGFPTEPNSSSRAIHVHQFGDLSQGCESTGPHYNPLAVPHPQHPGDFGNFAVRDGSLWRYRAGLAASLAGPHSIVGRAVVVHAGEDDLGRGGNQASVENGNAGRRLACCVVGVCGPGLWERQAREHSERKKRRRESECKAA
binding: binds
